The exact form of at least one protein or probe is not confirmed. The comparison behind a weaker result is the experiment's own reference, which may not be listed here. Protein sequences can lack the tags named with them.
Biological target: T1, Lrp (C-terminal His6 as stated + cloned NdeI/XhoI in pET28a) (Escherichia coli K-12 (strain FW102 genomic DNA)) (UniProt P0ACJ0)
T1 sequence (looked up): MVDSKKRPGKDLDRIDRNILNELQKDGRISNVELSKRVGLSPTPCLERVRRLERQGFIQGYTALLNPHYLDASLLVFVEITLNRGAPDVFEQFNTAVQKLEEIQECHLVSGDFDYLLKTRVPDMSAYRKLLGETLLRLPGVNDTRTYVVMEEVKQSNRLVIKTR
Assay: EMSA
Conditions: 10 mM Tris-HCl pH 7.4, 5 mM MgCl2, 250 mM KCl, 2.5 mM CaCl2, 0.5 mM DTT, 2.5% glycerol, 37 C 25 min, L-Arg and/or L-Leu when indicated, recombinant protein, residues 1-164, protein details: His6 (stated C-terminal), label: 5'-32P single-end, probe letters rebuilt from the primers and the genome

Measured: binding result

CGGGATCCGTATTCCTTCCCTACTCCTGTCTGACCCTGAAACATCACTGTTCAGAGTCGCTACCCGTCACGATAGACCGAAATCATGAAGATTCACGGCGCGCAATGCCTGGGTCTACGGTGAGAAGACCGTTGCCTTGTGGCAGCTATCGACATCACGAATGGCGTCTGTCCACGCCATACGTAGATTTCACTAGCACGGTAAACATGGTATTTACATGCATGGTTATGCGCATATAAGAATACTGTTTTTTTTCTTCCTCGAATGTTTTCGCAAAACACCAGGGGATTGTCAAAGCAAAACATCGATTTTTAGTACAACATGCCAGATATTCATTAACAGGGGCGTTTATTCATCATTTAATCGGCTTATAAAGCGAATTCCG (double strand) [lrp control region]
binds more weakly: 7.0 mM L-leucine | 10 mM L-arginine + 10 mM L-leucine | 10 mM L-leucine

Source: article PMC6640053
